We go through 1 molecule from publication PMC4833381.

By UniProt entry, the sequences of proteins in these tests, tags left out. Residues count along the entry.
UniProt P06473, residues 32-906: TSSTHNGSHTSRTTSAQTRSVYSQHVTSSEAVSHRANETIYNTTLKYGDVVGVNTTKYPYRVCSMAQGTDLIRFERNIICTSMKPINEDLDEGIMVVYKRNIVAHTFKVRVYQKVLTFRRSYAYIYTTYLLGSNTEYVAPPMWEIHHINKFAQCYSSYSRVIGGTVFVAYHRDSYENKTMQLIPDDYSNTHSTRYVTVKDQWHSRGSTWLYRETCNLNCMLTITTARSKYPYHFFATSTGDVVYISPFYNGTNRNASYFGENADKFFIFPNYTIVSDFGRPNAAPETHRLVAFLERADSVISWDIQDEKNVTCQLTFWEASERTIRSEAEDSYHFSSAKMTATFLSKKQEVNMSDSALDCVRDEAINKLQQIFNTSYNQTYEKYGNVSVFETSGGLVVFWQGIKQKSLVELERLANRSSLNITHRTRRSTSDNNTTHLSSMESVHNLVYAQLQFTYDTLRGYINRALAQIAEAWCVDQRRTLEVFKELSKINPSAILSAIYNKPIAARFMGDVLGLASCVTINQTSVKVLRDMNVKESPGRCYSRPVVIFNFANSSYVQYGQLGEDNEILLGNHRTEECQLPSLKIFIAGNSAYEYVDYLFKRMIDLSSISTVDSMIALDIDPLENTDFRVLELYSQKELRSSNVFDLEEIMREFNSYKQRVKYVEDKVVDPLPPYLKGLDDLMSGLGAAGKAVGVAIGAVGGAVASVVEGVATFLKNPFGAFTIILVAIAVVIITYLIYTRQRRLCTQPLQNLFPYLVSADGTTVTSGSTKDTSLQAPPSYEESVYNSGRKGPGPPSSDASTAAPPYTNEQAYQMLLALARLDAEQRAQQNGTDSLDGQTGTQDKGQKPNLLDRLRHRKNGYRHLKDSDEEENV

No constants are given. Whether binding was seen depends on the method and setting. In cells and extracts the contact can be indirect.

In this test the target is HCMV gB of HCMV BADrUL131 (infected cells and extracellular virions) (human cytomegalovirus, BADrUL131) (UniProt P06473). Kind of test: co-IP.

B1: HCMV glycoprotein M (gM) of HCMV BADrUL131 (extracellular virions) (protein, UniProt P16733 1-372)
chain: MAPSHVDKVNTRTWSASIVFMVLTFVNVSVHLVLSNFPHLGYPCVYYHVVDFERLNMSAYNVMHLHTPMLFLDSVQLVCYAVFMQLVFLAVTIYYLVCWIKISMRKDKGMSLNQSTRDISYMGDSLTAFLFILSMDTFQLFTLTMSFRLPSMIAFMAAVHFFCLTIFNVSMVTQYRSYKRSLFFFSRLHPKLKGTVQFRTLIVNLVEVALGFNTTVVAMALCYGFGNNFFVRTGHMVLAVFVVYAIISIIYFLLIEAVFFQYVKVQFGYHLGAFFGLCGLIYPIVQYDTFLSNEYRTGISWSFGMLFFIWAMFTTCRAVRYFRGRGSGSVKYQALATASGEEVAVLSHHDSLESRRLREEEDDDDDEDFEDA
As to B1, the binding result is on record as “no binding”.
